Results from the supplement of paper PMC11237882.
The other results are listed elsewhere or left out. Values are worked out from sequencing counts and are noisy.

T1: Homer1 EVH1 domain
T1 chain: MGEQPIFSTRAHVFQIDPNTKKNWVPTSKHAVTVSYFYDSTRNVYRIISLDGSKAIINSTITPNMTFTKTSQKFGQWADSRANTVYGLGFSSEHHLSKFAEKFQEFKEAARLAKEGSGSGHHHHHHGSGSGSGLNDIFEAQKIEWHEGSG

B1: unnamed (peptide)
chain: EKLLDPRIYYINSAASFFAFIATLLYILHAFSIYYP
B2: unnamed (peptide)
chain: MAGPWTFTLLCGLLAATLIQATLSPTAVLILGPKVI
B3: unnamed (peptide)
chain: IARVFVIIYMALLHLWVMIVLLTYTPEMHHDQPYGK
B4: unnamed (peptide)
chain: RNLLLLAWYFGSLLVIFCVELACGVWTYEQELMVPV
B5: unnamed (peptide)
chain: MPERLAEMLLDLWTPLIILWITLPPCIYMAPMNQSQ
B6: unnamed (peptide)
chain: LGPVCTVIVINSLLLTWTLWILRQRLSSVNAEVSTL
B7: unnamed (peptide)
chain: MAGIFYFALFSCLFGICDAVTGSRVYPANEVTLLDS
B8: unnamed (peptide)
chain: GTISLSCFLAVVTSYMVILVSLRKHSAKGRQKALST
B9: unnamed (peptide)
chain: IVPHRKSDLSKVVVRALFTGACVSLISACMAGILYV
B10: unnamed (peptide)
chain: PGLRVSGEQSLAWGLGGPSQSQKRKGDPLASRRKKK
B11: unnamed (peptide)
chain: SSMGGRPSSPLDKQQRQHLRGQVDTLLRNFLPCYRG
B12: unnamed (peptide)
chain: LKGALIKTQLCVLFCIQLFLRLIILWLCILHSMCNL
B13: unnamed (peptide)
chain: EMVLTFLFSAALLATRSVITINKNGPFDFAAQPVDE
B14: unnamed (peptide)
chain: TEDIGSKGYSLGIFLGVNLLAFLIIVFSYITMFCSI
B15: unnamed (peptide)
chain: RGDPSVGIFFFVSYIIISFLVVVNMYIAVILENFSV
B16: unnamed (peptide)
chain: CSIGMLRFVNLLFSVGNFYLLYLLFHKVQPRNKEYF
B17: unnamed (peptide)
chain: MCCTKSLLLAALMSVLLLHLCGESEAASNFDCCLGY
B18: unnamed (peptide)
chain: LWLINFVLALGQCALAGAFATYYWAMKKPDDISRYP
B19: unnamed (peptide)
chain: RPLFLALAVLVTTVLWAVILSILLSKASTERAALLD
B20: unnamed (peptide)
chain: MERVNETVVREVIFLGFSSLARLQQLLFVIFLLLYL
B21: unnamed (peptide)
chain: TLHTDGGDVGRAVVARLGLGLLLLALLLPTQIYSNQ
B22: unnamed (peptide)
chain: MEGAELAGKILSTWLTLVLGFILLPSVFGVSLGISE
B23: unnamed (peptide)
chain: IIGHGLSIASLLISLGIFFYFKSLSCQRITLHKNLF
B24: unnamed (peptide)
chain: CISVWNVFLLANFTLVLSIFILPLMHTYAGLAVICA
B25: unnamed (peptide)
chain: MGLNKSASTFQLTGFPGMEKAHHWIFIPLLAAYISI
B26: unnamed (peptide)
chain: TISQFTLSEETNADVYYYRIIIPVLLMLGISCFIFS
B27: unnamed (peptide)
chain: PAFIASASSSNWEFIGCLISTWHSALCLLKPLILRR
B28: unnamed (peptide)
chain: TLVLAIPLLLILVSYVHILSAILQFPSTLGRCKAFS

Target: T1, Homer1 EVH1 domain
Assay: enrichment score (AUC of log2 frequency ratio across FACS sorting rounds) (log2 AUC); higher = stronger enrichment for Homer1 EVH1 binding

| Binder | enrichment score |
| --- | --- |
| B1 | 4.49 |
| B2 | 4.15 |
| B3 | 1.01 |
| B4 | 0.747 |
| B5 | -1.07 |
| B6 | 3.49 |
| B7 | 1.32 |
| B8 | 0.887 |
| B9 | 0.841 |
| B10 | 0.142 |
| B11 | 1.79 |
| B12 | -2.94 |
| B13 | -1.8 |
| B14 | -0.487 |
| B15 | 0.305 |
| B16 | 1.6 |
| B17 | -0.823 |
| B18 | 2.92 |
| B19 | 1.74 |
| B20 | 1.02 |
| B21 | 2.25 |
| B22 | 3.83 |
| B23 | -0.966 |
| B24 | 1.35 |
| B25 | 0.664 |
| B26 | 4 |
| B27 | -0.92 |
| B28 | 2.54 |
